Assay results from doi:10.1101/2024.10.25.620210.
Results are given in words; binding and its absence hold for the method and conditions named. In cells and extracts the contact can be indirect. These calls come from enrichment with a bait or labelling near it, and not all partners need be listed. For part of these data: Sequences can lack the tags named with a protein.

Amino acid sequences for entries named in this document (tags omitted).
UniProt P56757: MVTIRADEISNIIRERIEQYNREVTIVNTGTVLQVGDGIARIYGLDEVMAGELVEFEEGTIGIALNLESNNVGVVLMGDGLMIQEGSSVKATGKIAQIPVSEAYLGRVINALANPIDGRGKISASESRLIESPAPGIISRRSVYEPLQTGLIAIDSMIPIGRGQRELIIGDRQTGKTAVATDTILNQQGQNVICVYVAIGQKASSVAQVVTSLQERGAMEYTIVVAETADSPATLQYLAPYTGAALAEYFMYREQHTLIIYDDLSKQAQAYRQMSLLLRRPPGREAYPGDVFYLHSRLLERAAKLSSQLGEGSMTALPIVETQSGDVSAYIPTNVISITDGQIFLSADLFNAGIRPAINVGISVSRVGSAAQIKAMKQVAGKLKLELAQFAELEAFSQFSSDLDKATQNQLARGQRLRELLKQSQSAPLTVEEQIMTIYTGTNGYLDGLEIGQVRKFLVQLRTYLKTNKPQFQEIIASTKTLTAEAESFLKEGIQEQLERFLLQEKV

T1: stλP8 (cTP8-2xStrep-HA-TurboID-A10 linker-PAP8) (Arabidopsis thaliana) (UniProt Q9XI19)
T1 sequence: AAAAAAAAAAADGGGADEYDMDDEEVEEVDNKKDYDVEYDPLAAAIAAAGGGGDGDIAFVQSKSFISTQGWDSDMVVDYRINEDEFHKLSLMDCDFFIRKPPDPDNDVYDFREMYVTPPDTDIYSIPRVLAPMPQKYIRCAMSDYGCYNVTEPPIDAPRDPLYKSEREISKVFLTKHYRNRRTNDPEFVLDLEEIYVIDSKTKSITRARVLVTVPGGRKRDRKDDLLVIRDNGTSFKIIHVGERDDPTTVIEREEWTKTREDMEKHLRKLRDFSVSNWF


Experiments:
[1] = biological target: stP8 (cTP8-2xStrep-HA-TurboID-PAP8) (Arabidopsis thaliana) (UniProt Q9XI19); assay: affinity purification with mass spectrometry
[2] = biological target: T1, stλP8 (cTP8-2xStrep-HA-TurboID-A10 linker-PAP8) (Arabidopsis thaliana); assay: affinity purification with mass spectrometry
[3] = biological target: T1, stλP8 (cTP8-2xStrep-HA-TurboID-A10 linker-PAP8) (Arabidopsis thaliana); assay: proximity labelling
[4] = biological target: stP8 (cTP8-2xStrep-HA-TurboID-PAP8) (Arabidopsis thaliana) (UniProt Q9XI19); assay: proximity labelling

| Molecule | binding [1] | binding [2] | binding [3] | binding [4] |
| --- | --- | --- | --- | --- |
| ATPA (from UniProt P56757 1-507) | binds |  |  |  |
| HTB9 (AT3G45980), histone 2B (Arabidopsis thaliana (endogenous)) |  | binds | binds |  |
| ATPF (protein, UniProt P56759 1-184) MKNLTDSFVYLGHWPSAGSFGFNTDILATNPINLSVVFGVLIFFGKGVLNDLLDNRKQRILNTIRNSEELREGAIQQLENARARLRNVETEADKFRVNGYSEIEREKLNLINSTYKTLKQLENYKNETILFEQQRTINQVRERVFQQALQGAIGTLNSCLSNELHLRTINANIGMFGTMKEITD | binds |  |  |  |
| mTERF5/MDA1 (protein, UniProt F4JVI3 44-493) LKNRVEFSPRPVPPNLIAAEKEEAKAVLTLFFKKQGLSNSLSSRLINKSDLFIDHLVSRLHSVHKARYLVGRELTTLEIRDSLIPYLEQLHEEHGDLLAELVVSFPDPPAEPRLVASSPVSVLPPRGDTDSAADTRKLRAVSRVSELDTEGALRPQTLYLLDLGLNLEQIKTITRKFAAFPYYSLDGKIKPVVEFLLDLGIPKSDIPTILCKRPQICGISLTDNLKPTMAFLETLGIDKNQWAKIISRFPAILTYSRQKLTSTVEFLSQTGLTEEQIGRILTRCPNIMSYSVEDKLRPTMEYFRSLNVDVAVLLHRCPQTFGLSIESNLKPVTEFFLEKGFGLDEIGIMISRYGALYTFSLKENVMPKWDYFQTMDYPKSELVKFPQFFGYSLQERIKPRYELVQRSGVRLLLNQVLSLSGIEFEKVVKKKMMKLVSNNVIAEQSSGGLL |  |  | binds |  |
| TIG (trigger factor) (protein, UniProt Q8S9L5 78-547) AASPAVETSVKEDKLPADLKVTETVQANSSVKLSVEVPEIVCEDCYQRVLTEFMKLSKVPGFRPKTRVPENIIVGFVGRQYVLRATVESILKRTLPHAMESVTGRALKDSIQIVSSFPDMEKAYSKLKTLSYEVVVDVVPELKWNPEDGYKNMKVVVELGDEIDAKKACERQLRQKYKSLGALKIVTERGLQVGDLAVVDISATTIDEDGSTGQAIPDAESKGFHFDTEEGNRLLPGFLDAIIGIRAGESKSFTLVFPESWKQESLRGQRAQFTVDCKELFYRDLPTLDDSLADKLLPGCTTLKEVEETLAKRCQEMEQEAKEQATDNAILEQIRKMVEVEIPQSLFEEQGRQFYGARLLEIQGNMKLNEDQLASLSSQKAVNEFLETQRESITNIIKQNIAVGDIFKRENLEFSTDELVKEVENSISEFKKHKQEFDEERVKDQVQEILEGAKVLEWLKDRAEIQYITR | binds | binds | binds | binds |
| phytochrome A (endogenous) (receptor, UniProt P14712 1-1122) MSGSRPTQSSEGSRRSRHSARIIAQTTVDAKLHADFEESGSSFDYSTSVRVTGPVVENQPPRSDKVTTTYLHHIQKGKLIQPFGCLLALDEKTFKVIAYSENASELLTMASHAVPSVGEHPVLGIGTDIRSLFTAPSASALQKALGFGDVSLLNPILVHCRTSAKPFYAIIHRVTGSIIIDFEPVKPYEVPMTAAGALQSYKLAAKAITRLQSLPSGSMERLCDTMVQEVFELTGYDRVMAYKFHEDDHGEVVSEVTKPGLEPYLGLHYPATDIPQAARFLFMKNKVRMIVDCNAKHARVLQDEKLSFDLTLCGSTLRAPHSCHLQYMANMDSIASLVMAVVVNEEDGEGDAPDATTQPQKRKRLWGLVVCHNTTPRFVPFPLRYACEFLAQVFAIHVNKEVELDNQMVEKNILRTQTLLCDMLMRDAPLGIVSQSPNIMDLVKCDGAALLYKDKIWKLGTTPSEFHLQEIASWLCEYHMDSTGLSTDSLHDAGFPRALSLGDSVCGMAAVRISSKDMIFWFRSHTAGEVRWGGAKHDPDDRDDARRMHPRSSFKAFLEVVKTRSLPWKDYEMDAIHSLQLILRNAFKDSETTDVNTKVIYSKLNDLKIDGIQELEAVTSEMVRLIETATVPILAVDSDGLVNGWNTKIAELTGLSVDEAIGKHFLTLVEDSSVEIVKRMLENALEGTEEQNVQFEIKTHLSRADAGPISLVVNACASRDLHENVVGVCFVAHDLTGQKTVMDKFTRIEGDYKAIIQNPNPLIPPIFGTDEFGWCTEWNPAMSKLTGLKREEVIDKMLLGEVFGTQKSCCRLKNQEAFVNLGIVLNNAVTSQDPEKVSFAFFTRGGKYVECLLCVSKKLDREGVVTGVFCFLQLASHELQQALHVQRLAERTAVKRLKALAYIKRQIRNPLSGIMFTRKMIEGTELGPEQRRILQTSALCQKQLSKILDDSDLESIIEGCLDLEMKEFTLNEVLTASTSQVMMKSNGKSVRITNETGEEVMSDTLYGDSIRLQQVLADFMLMAVNFTPSGGQLTVSASLRKDQLGRSVHLANLEIRLTHTGAGIPEFLLNQMFGTEEDVSEEGLSLMVSRKLVKLMNGDVQYLRQAGKSSFIITAELAAANK | binds |  |  |  |
| STIC2 (protein, UniProt O82230 49-182) VNGLFGGGNKDNNSEDGQSKAGIFGNMQNMYETVKKAQMVVQVEAVRVQKELAAAEFDGYCAGELVKVTLSGNQQPIRTDITEAAMELGSEKLSQLVTEAYKDAHAKSVVAMKERMSDLAQSLGMPPGLSEGMK | binds | binds | binds | binds |

Continued, values first:

| binding [1] | binding [2] | binding [3] | binding [4] | Molecule |
| --- | --- | --- | --- | --- |
|  | binds | binds |  | STICL (Arabidopsis thaliana (endogenous)) |
| binds | binds | binds | binds | LIN2 (protein, UniProt Q9LR75 49-386) VSIEKEVPETERPFTFLRDSDDVTPSSSSSSVRARFETMIRAAQDSVCDAIEAIEGGPKFKEDVWSRPGGGGGISRVLQDGNVFEKAGVNVSVVYGVMPPEAYRAAKGSASDQKPGPVPFFAAGVSSVLHPKNPFAPTLHFNYRYFETDAPKDVPGAPRQWWFGGGTDFTPAYIFEEDVKHFHSIQKQACDKFDPSFYPRFKKWCDDYFYIKHRDERRGLGGIFFDDLNDYDQEMLLSFATECANSVVPAYIPIVEKRKDMEFTEQHKAWQQLRRGRYVEFNLVYDRGTTFGLKTGGRIESILVSLPLSARWEYDHKPEEGTEEWKLLDACINPKEWI |
| binds | binds | binds | binds | EMB1144 (protein, UniProt P57720 51-436) TGSSYGTHFRVSTFGESHGGGVGCIIDGCPPRIPLTESDLQFDLDRRRPGQSRITTPRKETDTCRISSGVSEGMTTGTPIHVFVPNTDQRGLDYSEMSVAYRPSHADATYDMKYGVRSVQGGGRSSARETIGRVAPGALAKKILKQFAGTEILAYVSQVHHVVLPEELVDHENLTLEQIENNIVRCPNPEYAEKMIAAIDAVRTKGNSVGGVVTCIVRNAPRGLGTPVFDKLEAELAKACMSLPATKGFEFGSGFAGTFLTGLEHNDEFYTDENGRIRTRTNRSGGIQGGISNGEIINMRVAFKPTSTIGRKQNTVTRDKVETEMIARGRHDPCVVPRAVPMVEAMVALVLVDQLMAQYAQCHLFPINPELQEPLQIEQPQNATAL |
| binds | binds | binds | binds | AT-Hook (AT1G48610) (protein, UniProt Q94AD1 1-212) MAKTALTPPASGSEVPRSGTPGDASGNKPQTDATGVSATDTASQKRGRGRPPKAKSDSSQIGAVSAKASTKPSGRPKRNVAQAVPSTSVAAAVKKRGRAKRSTVTAAVVTTATGEGSRKRGRPKKDDVAAATVPAETVVAPAKRRGRKPTVEVAAQPVRRTRKSTSVAPVAANVGDLKKRTALLQKKVKEAAAKLKQAVTAIDEVQKLADGM |
| binds |  |  |  | sigma factor SIG6/SIGF (protein, UniProt Q9LD95 56-547) ASVLSQEPREESRPLSHALRDDRTSQLTLERRQFDELVSSREDEKFEQQLLHSTGLWNLLISPLTSETKLPAVVSPLADAELCDVVALAQKALSASKQAALLVDDTEANPSDNIKDSLSTSSSMSLPEKGNIVRSKRQLERRAKNRRAPKSNDVDDEGYVPQKTSAKKKYKQGADNDDALQLFLWGPETKQLLTAKEEAELISHIQHLLKLEKVKTKLESQNGCEPTIGEWAEAMGISSPVLKSDIHRGRSSREKLITANLRLVVHIAKQYQNRGLNFQDLLQEGSMGLMKSVEKFKPQSGCRFATYAYWWIRQSIRKSIFQNSRTIRLPENVYMLLGKVSEARKTCVQEGNYRPSKEELAGHVGVSTEKLDKLLYNTRTPLSMQQPIWSDQDTTFQEITPDSGIETPTMSVGKQLMRNHVRNLLNVLSPKERRIIKLRFGIDGGKQRSLSEIGEIYGLSKERVRQLESRALYRLKQNMNSHGLHAYADLLV |
| binds |  |  |  | sigma factor SIG2 (protein, UniProt O22056 40-572) CAVSTSPALLTSMLDVAKLRLPSFDTDSDSLISDRQWTYTRPDGPSTEAKYLEALASETLLTSDEAVVVAAAAEAVALARAAVKVAKDATLFKNSNNTNLLTSSTADKRSKWDQFTEKERAGILGHLAVSDNGIVSDKITASASNKESIGDLESEKQEEVELLEEQPSVSLAVRSTRQTERKARRAKGLEKTASGIPSVKTGSSPKKKRLVAQEVDHNDPLRYLRMTTSSSKLLTVREEHELSAGIQDLLKLERLQTELTERSGRQPTFAQWASAAGVDQKSLRQRIHHGTLCKDKMIKSNIRLVISIAKNYQGAGMNLQDLVQEGCRGLVRGAEKFDATKGFKFSTYAHWWIKQAVRKSLSDQSRMIRLPFHMVEATYRVKEARKQLYSETGKHPKNEEIAEATGLSMKRLMAVLLSPKPPRSLDQKIGMNQNLKPSEVIADPEAVTSEDILIKEFMRQDLDKVLDSLGTREKQVIRWRFGMEDGRMKTLQEIGEMMGVSRERVRQIESSAFRKLKNKKRNNHLQQYLVAQS |
